# From article PMC5922973, “Topoisomerase VI senses and exploits both DNA crossings and bends to facilitate strand passage” (eLife, 2018)
# Chains of the proteins cited; added tags and fusions are not shown. A line that says so, or that is headed by a name, gives the form on record, which may keep a tag or linker.
# topo VI H2TH-AAA R263A,K268A,K308A (Methanosarcina mazei), one chain, as listed by the source R263A K268A K308A, chain 2 of 2: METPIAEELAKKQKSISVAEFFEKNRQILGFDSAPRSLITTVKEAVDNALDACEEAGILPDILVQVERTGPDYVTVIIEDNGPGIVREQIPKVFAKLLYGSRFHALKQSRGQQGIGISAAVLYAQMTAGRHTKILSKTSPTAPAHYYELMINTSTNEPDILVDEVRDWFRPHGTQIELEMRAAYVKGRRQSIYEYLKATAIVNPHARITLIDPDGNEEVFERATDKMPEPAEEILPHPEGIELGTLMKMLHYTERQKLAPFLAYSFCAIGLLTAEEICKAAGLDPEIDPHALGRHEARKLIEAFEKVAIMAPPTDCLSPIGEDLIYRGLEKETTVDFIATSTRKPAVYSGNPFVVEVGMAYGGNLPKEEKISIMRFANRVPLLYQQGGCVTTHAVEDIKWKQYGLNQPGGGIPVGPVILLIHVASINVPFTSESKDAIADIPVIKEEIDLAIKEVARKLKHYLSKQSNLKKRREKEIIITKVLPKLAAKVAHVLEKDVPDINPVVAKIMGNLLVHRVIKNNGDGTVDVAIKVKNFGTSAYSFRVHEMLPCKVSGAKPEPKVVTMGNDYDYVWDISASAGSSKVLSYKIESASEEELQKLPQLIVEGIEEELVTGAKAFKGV
# topo VI Stalk/WKxY-AAA K399A,K401A,R457A (Methanosarcina mazei), one chain, as listed by the source K399A K401A R457A, chain 2 of 2: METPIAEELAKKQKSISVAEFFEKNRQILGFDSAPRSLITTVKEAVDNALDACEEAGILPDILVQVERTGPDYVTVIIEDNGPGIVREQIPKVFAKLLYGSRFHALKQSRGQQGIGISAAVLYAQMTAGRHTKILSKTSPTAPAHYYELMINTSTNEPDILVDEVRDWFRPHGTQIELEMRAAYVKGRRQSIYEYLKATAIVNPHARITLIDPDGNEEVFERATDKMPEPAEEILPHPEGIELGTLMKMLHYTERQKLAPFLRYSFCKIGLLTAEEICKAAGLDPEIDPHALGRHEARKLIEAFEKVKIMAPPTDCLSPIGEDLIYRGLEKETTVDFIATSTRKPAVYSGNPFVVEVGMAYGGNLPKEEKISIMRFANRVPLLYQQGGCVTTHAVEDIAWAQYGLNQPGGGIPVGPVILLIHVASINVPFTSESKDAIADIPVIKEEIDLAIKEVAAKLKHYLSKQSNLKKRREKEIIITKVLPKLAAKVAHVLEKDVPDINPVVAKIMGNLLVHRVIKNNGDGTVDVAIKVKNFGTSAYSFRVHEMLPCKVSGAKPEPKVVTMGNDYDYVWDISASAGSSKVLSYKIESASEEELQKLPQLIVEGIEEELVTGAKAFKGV
# Construct, isoform or probe ends are uncertain for at least one entry. For some assays here: The comparison behind a weaker result is the experiment's own reference, which may not be listed here. For some assays here: At least one verdict was read from the data and is not stated in words by the source.
# Tests used:
# [1] = test system: topo VI H2TH-EEE R263E,K268E,K308E (Methanosarcina mazei); assay: fluorescence anisotropy; conditions: FA: 20 nM probe, 50 mM K-glutamate, 20 mM HEPES-KOH pH 7.5, 10 mM MgCl2, 5% glycerol, 1 mM TCEP, 0.1 mg/mL BSA, incubated on ice, read at ambient temperature, recombinant protein, protein details: N-terminal His6-TEV on Top6B, removed, label: 5'-FAM strand 1
# [2] = test system: topo VI Stalk/WKxY-AAA K399A,K401A,R457A (Methanosarcina mazei); assay: fluorescence anisotropy; conditions: FA: 20 nM probe, 50 mM K-glutamate, 20 mM HEPES-KOH pH 7.5, 10 mM MgCl2, 5% glycerol, 1 mM TCEP, 0.1 mg/mL BSA, incubated on ice, read at ambient temperature, recombinant protein, protein details: N-terminal His6-TEV on Top6B, removed, label: 5'-FAM strand 1
# [3] = test system: topo VI Stalk/WKxY-EEE K399E,K401E,R457E (Methanosarcina mazei); assay: fluorescence anisotropy; conditions: FA: 20 nM probe, 50 mM K-glutamate, 20 mM HEPES-KOH pH 7.5, 10 mM MgCl2, 5% glycerol, 1 mM TCEP, 0.1 mg/mL BSA, incubated on ice, read at ambient temperature, recombinant protein, protein details: N-terminal His6-TEV on Top6B, removed, label: 5'-FAM strand 1
# [4] = test system: topo VI H2TH-AAA R263A,K268A,K308A (Methanosarcina mazei); assay: FRET DNA bending; conditions: minor FRET change, no AMPPNP-dependent bending; recombinant protein; protein details: N-terminal His6-TEV on Top6B, removed; label: 5'-Cy5 strand 1, 5'-Cy5.5 strand 2
# [5] = test system: topo VI H2TH-EEE R263E,K268E,K308E (Methanosarcina mazei); assay: FRET DNA bending; conditions: minor FRET change, no AMPPNP-dependent bending; recombinant protein; protein details: N-terminal His6-TEV on Top6B, removed; label: 5'-Cy5 strand 1, 5'-Cy5.5 strand 2
# [6] = test system: topo VI Stalk/WKxY-AAA K399A,K401A,R457A (Methanosarcina mazei); assay: FRET DNA bending; conditions: minor FRET change, slow increase with AMPPNP; recombinant protein; protein details: N-terminal His6-TEV on Top6B, removed; label: 5'-Cy5 strand 1, 5'-Cy5.5 strand 2
# [7] = test system: topo VI Stalk/WKxY-EEE K399E,K401E,R457E (Methanosarcina mazei); assay: FRET DNA bending; conditions: minor FRET change, slow increase with AMPPNP; recombinant protein; protein details: N-terminal His6-TEV on Top6B, removed; label: 5'-Cy5 strand 1, 5'-Cy5.5 strand 2
sequence,measurement,setting,value
CCAAATGCTTCAATAATATTGAAAAAGGAAGAGTATGAGTATTCAACATTTCCGTGTCGCCCTTATTCCC (double strand) [70 bp duplex],Kd,[1]; Hill h 1.7,0.103 µM
same,binding result,[2],binds more weakly
same,binding result,[3],binds more weakly
CGCTTCAATAATATTGAAAAAGGAAGAGTATGAGTATTCAACATTTCCGTGTCGCCCTTC (double strand) [60 bp duplex],Kd,[1]; Hill h 1.8,0.109 µM
same,binding result,[2],binds more weakly
same,binding result,[3],binds more weakly
CTATTGAAAAAGGAAGAGTATGAGTATTCAACATTTCCGC (double strand) [40 bp duplex],binding result,[2],binds more weakly
same,binding result,[3],binds more weakly
CAAAAAGGAAGAGTATGAGTATTCAACATC (double strand) [30 bp duplex],binding result,[2]; Kd not determined,binds more weakly
same,binding result,[3]; Kd not determined,binds more weakly
CCAAATGCTTCAATAATATTGAAAAAGGAAGAGTATGAGTATTCAACATTTCCGTGTCGCCCTTATTCCC (double strand) [70 bp duplex Cy5/Cy5.5],binding result,[4],binds more weakly
same,binding result,[5],binds more weakly
same,binding result,[6],binds more weakly
same,binding result,[7],binds more weakly
